# Results reported in PubChem BioAssay AID485314 (National Center for Advancing Translational Sciences (NCATS), 2010).
# The campaign covered roughly 340,000 compounds. About 4,500 (1.3%) were called active. The inconclusive results got no clear call from the source; some entries with a clear call stand among them for comparison. The call rests on the fitted dose curve; in most records, active means well fitted inhibition curve with a large enough effect; inconclusive means small, poorly fitted or top-dose-only effect, or another doubt; inactive means no such curve, though single readings can be large or run the other way. Potencies beside an inconclusive call are fits to weak or partial responses and may not hold up.
# Target: DNA polymerase beta (Homo sapiens) (UniProt P06746)
# Experiment: qHTS Assay for Inhibitors of DNA Polymerase Beta
# Conditions: Pol beta primer extension/strand displacement, fluorescence kinetic; activity change, negative = inhibition: at 114 µM (top of the series)
# In short: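 Reaction started by 50 nM substrate onto compound-treated Pol beta (10 nM, 15 min preincubation, room temperature); plates read at 0 min and 10 min. Normalized concentration-effect data fitted by four-parameter Hill equation.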
# On the % scale 0 is the no-effect control and ±100 the full control effect; potency means the concentration at half of the fitted maximal effect.
SMILES,"activity change, negative = inhibition",Potency
Cc1cccc(NC(=O)c2ccc(-n3c(C)nnc3C)cc2)c1,inactive: 1.96%,–
Cc1ccc(-n2cccc2/C=C2/NC(=O)N(CC(=O)Nc3cccc(C)c3)C2=O)cc1,–,"inconclusive: 3.98 µM [inhibitor, single point]"
COc1ccc(NC(=O)c2ccco2)cc1NC(=O)c1cc(Cl)ccc1OC,–,"inconclusive: 39.8 µM [inhibitor, partial curve, poor fit]"
CCCN(CCC)C(=O)Cn1c(=O)n(-c2cccc(C)c2)c(=O)c2c1c1cc(OC)ccc1n2C,inactive: 1.55%,–
O=C(COc1ccc2ccccc2c1CN1CCOCC1)N1CCc2ccccc21,–,"inconclusive: 100 µM [inhibitor, single point]"
O=S(=O)(c1ccc(F)cc1)N1CCC(Oc2cccc(C(F)(F)F)c2)CC1,inactive: -13%,–
COc1cc2c(cc1OC)CN(c1ccc(C(N)=O)cc1[N+](=O)[O-])CC2,–,"inconclusive: 89.1 µM [inhibitor, single point]"
COCCCNc1nc2ccccc2nc1NS(=O)(=O)c1ccc(C)cc1,–,"inconclusive: 0.158 µM [inhibitor, full curve]"
COc1cccc(-c2cn(C[C@H]3CC[C@@H]([C@@H]4CC[C@H](Cn5cc(-c6cccc(OC)c6)nn5)O4)O3)nn2)c1,inactive: 15.6%,–
CC(C(=O)Nc1cc([N+](=O)[O-])ccc1Cl)N1CCN(c2ccc(O)cc2)CC1 (stereo unspecified),–,"inconclusive: 22.4 µM [inhibitor, full curve]"
O=C(N/N=C/c1cn[nH]c1-c1ccc(Cl)cc1)c1ccc([N+](=O)[O-])cc1,–,"inconclusive: 79.4 µM [inhibitor, single point]"
CCCN1Cc2cccc(C(=O)Nc3cc(Cl)ccc3C)c2C1=O,inactive: 12.8%,–
CCCS(=O)(=O)c1cnc(C2COc3ccccc3O2)nc1N (stereo unspecified),inactive: 1.05%,–
COc1cc(S(=O)(=O)N2CCN3CCCC3C2)ccc1-n1cnnn1 (stereo unspecified),–,"inconclusive: 89.1 µM [inhibitor, single point]"
COc1ccccc1OCCn1c(SCC(=O)O)nc2ccccc21,–,active: 28.2 µM
Cc1nn(-c2ccccc2)c(CC(C)(C)C(=O)O)c1C(=O)O,–,"inconclusive: 4.47 µM [inhibitor, single point]"
CCOc1ccc(-c2nnc(SCC(=O)Nc3cccc(C#N)c3)o2)cc1,–,"inconclusive: 39.8 µM [inhibitor, partial curve]"
COc1ccc(-c2c(C)c3ccc(O)c(CN4CCOCC4)c3oc2=O)cc1OC,inactive: 3.96%,–
CC(=O)Nc1ccc(C(=O)Nc2cccc(-c3cnc4ccccc4n3)c2)cc1,–,active: 4.47 µM
CC1CCN(C(=O)Cn2c(-c3cccs3)cc3cc(Cl)ccc32)CC1,–,"inconclusive: 89.1 µM [inhibitor, single point]"
COc1cccc(NC(=O)Nc2ccc3c(c2)N(C)C(=O)c2ccccc2S3)c1,inactive: -11.2%,–
NC1=NC(=Nc2ccccc2)c2ccccc21,–,"inconclusive: 4.47 µM [inhibitor, single point]"
O=C(O)c1cccc(S(=O)(=O)Nc2ccc3oc(=O)sc3c2)c1,–,"inconclusive: 0.316 µM [inhibitor, full curve, poor fit]"

# Whole records, quoted from the list. Order of values: activity change, negative = inhibition	Potency
# `COc1ccc(-c2c(C)c3ccc(O)c(CN4CCOCC4)c3oc2=O)cc1OC` as listed: inactive: 3.96%	–
# `NC1=NC(=Nc2ccccc2)c2ccccc21` as listed: –	inconclusive: 4.47 µM [inhibitor, single point]

# Additional results follow:

SMILES,"activity change, negative = inhibition",Potency
COc1ccc(/C=N/NC(=O)c2ccco2)cc1COc1ccc(F)cc1,–,"inconclusive: 79.4 µM [inhibitor, single point]"
CCn1c(COc2ccccc2C)nnc1SCC(=O)OC,–,"inconclusive: 89.1 µM [inhibitor, single point]"
CCN(CC)c1ccc2cc(-c3nc4sc5c(c4c(=O)[nH]3)CCC(C(C)(C)C)C5)c(=O)oc2c1 (stereo unspecified),–,"inconclusive: 89.1 µM [inhibitor, single point]"
COc1cccc(NC(=O)c2c(C)oc3nc(C)nc(N4CCCC4)c23)c1,inactive: 33.4%,–
CCN1CCN(Cc2c(O)ccc3oc(C)c(C(=O)Nc4cccc(C(F)(F)F)c4)c23)CC1,inactive: 8.26%,–
Cc1ccc2c(c1)N(C(=O)CCC(=O)NCc1cccc(F)c1)CC(C)O2 (stereo unspecified),inactive: 0.785%,–
CC(C)CCC(C(=O)NC(C)c1ccccc1)C(=O)NC(C)c1ccccc1 (stereo unspecified),–,"inconclusive: 3.98 µM [inhibitor, single point]"
C=CCOn1c(C)c(C(C)=O)c2c3nonc3ccc21,–,"inconclusive: 79.4 µM [inhibitor, single point]"
Cc1cc(C(=O)COc2ccc3ccc(=O)oc3c2)c(C)n1Cc1cccs1,–,active: 50.1 µM
COc1cccc(/C=N/NC(=O)C(C)Cn2cnc3ccccc32)c1 (stereo unspecified),inactive: -1.13%,–
CCN(CC)S(=O)(=O)c1ccc2c(c1)N(CC(=O)Nc1cccc(C#N)c1)C(=O)CO2,–,"inconclusive: 4.47 µM [inhibitor, full curve]"
CCOC(=O)C1=C(CSc2nc3ccccc3s2)NC(=O)NC1c1ccc(OC)cc1 (stereo unspecified),–,"inconclusive: 1.41 µM [inhibitor, full curve]"
CC(C)c1csc(CN2CCC(CO)(Cc3ccccc3)CC2)n1,–,"inconclusive: 89.1 µM [inhibitor, single point]"
O=C(Nn1c(-c2ccc(Br)cc2)nc2ccccc2c1=O)c1cccnc1,inactive: 3.35%,–
COc1ccc(N2CCN(Cc3nc4c(c(=O)[nH]c(=O)n4C)n3Cc3ccccc3C)CC2)cc1,inactive: 2.21%,–
COC(=O)c1ccccc1NC(=O)CN(C)S(=O)(=O)c1cc(C)ccc1OC,inactive: 0.68%,–
COc1ccc(NC(=O)Cn2c(=O)oc3cc(S(=O)(=O)N4CCCCCC4)ccc32)cc1OC,inactive: 7.51%,–
CC(C)CS(=O)(=O)C1=NSC2=NC(=O)/C(=C\c3ccc(OC(=O)c4ccco4)cc3)C(=N)N21,inactive: -3.39%,–
CSC1=NC(=O)/C(=C\c2cccc3ccccc23)S1,–,active: 50.1 µM
Cc1ccc(C(=O)Nc2ccc3c(c2)OCO3)cc1Cl,–,"inconclusive: 79.4 µM [inhibitor, single point]"
O=C(Nc1cccc(Cl)c1Cl)c1cc(S(=O)(=O)N2CCCCC2)ccc1F,inactive: 19.1%,–
COc1ccc(NC(=O)CSc2ccc(-c3ccco3)nn2)cc1OC,–,"inconclusive: 28.2 µM [inhibitor, full curve]"
Cn1c(=O)c(-c2cc(=O)[nH][nH]2)c(O)c2ccccc21,–,"inconclusive: 25.1 µM [inhibitor, partial curve, poor fit]"
